Entries after “also recorded” stand apart in the source; their conditions may differ. For at least one compound, name, drawing or mass did not settle the structure.
Columns and labels:
Assay type in all cases: cell-based, human
[1] = tested on: MEK^high CD4 T-cell population; assay: Sensitivity of MEK^high CD4 population to dexamethasone-induced cell death; conditions: BAL CD4 T cells, MEK^high (MFI 133)
BAL CD4 T cells = assay: Effect of dexamethasone on BAL cell expression of MKP1 (flow cytometry); conditions: BAL cells cultured overnight (16 hours) with dexamethasone 10^−7 Mol/L
IL-4+Th2 cells = assay: Effect of dexamethasone on BAL single-positive IL-4 CD4 T cells; conditions: BAL cells cultured overnight with dexamethasone 10^−7 Mol/L; 14 asthmatic patients
[2] = tested on: dual-positive Th2/Th17 cells; assay: Effect of dexamethasone on BAL dual-positive IL-4/IL-17 CD4 T cells; conditions: BAL cells cultured overnight with dexamethasone 10^−7 Mol/L, 14 asthmatic patients

C[C@@H]1C[C@H]2[C@@H]3CCC4=CC(=O)C=C[C@]4(C)[C@@]3(F)[C@@H](O)C[C@]2(C)[C@@]1(O)C(=O)CO [Dexamethasone, dexamethasone]
dexamethasone-induced cell death, MEK^high CD4 T cells [1]: completely resistant; also recorded: resistant to dexamethasone
number of T cells that expressed high levels of CD4 and low levels of MKP1 (BAL CD4 T cells): decreased
number of cells that expressed higher levels of MKP1 (BAL CD4 T cells): increased
effect on IL-4+Th2 cells (IL-4+Th2 cells): downregulated
effect on dual-positive Th2/Th17 cells [2]: did not show any inhibitory effect; also recorded: increased the number of Th2/Th17 cells in some patients
effect on dual-positive Th2/Th17 cells ([2]; listed as dexamethasone): resistant to dexamethasone
